# These are yes or no findings as the source states them, for the method shown. Binding seen in cells or lysates may run through a third protein. Some entries that bind do so weakly or less than the wild type.
# Sequences of proteins named here, by UniProt entry; tags and fusion partners are left off.
# UniProt P01106: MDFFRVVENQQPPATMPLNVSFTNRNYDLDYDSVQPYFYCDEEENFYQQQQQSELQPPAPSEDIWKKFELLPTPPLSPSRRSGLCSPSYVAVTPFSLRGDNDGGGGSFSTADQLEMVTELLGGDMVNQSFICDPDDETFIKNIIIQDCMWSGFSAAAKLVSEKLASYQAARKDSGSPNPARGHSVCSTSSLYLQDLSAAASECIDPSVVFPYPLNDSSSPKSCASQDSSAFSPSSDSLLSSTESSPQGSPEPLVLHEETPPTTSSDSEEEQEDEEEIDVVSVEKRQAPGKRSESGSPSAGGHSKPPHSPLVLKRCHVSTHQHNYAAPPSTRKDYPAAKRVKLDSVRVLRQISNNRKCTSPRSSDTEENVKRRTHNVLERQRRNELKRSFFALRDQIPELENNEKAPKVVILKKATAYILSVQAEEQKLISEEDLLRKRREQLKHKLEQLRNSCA
# UniProt Q8IUF8: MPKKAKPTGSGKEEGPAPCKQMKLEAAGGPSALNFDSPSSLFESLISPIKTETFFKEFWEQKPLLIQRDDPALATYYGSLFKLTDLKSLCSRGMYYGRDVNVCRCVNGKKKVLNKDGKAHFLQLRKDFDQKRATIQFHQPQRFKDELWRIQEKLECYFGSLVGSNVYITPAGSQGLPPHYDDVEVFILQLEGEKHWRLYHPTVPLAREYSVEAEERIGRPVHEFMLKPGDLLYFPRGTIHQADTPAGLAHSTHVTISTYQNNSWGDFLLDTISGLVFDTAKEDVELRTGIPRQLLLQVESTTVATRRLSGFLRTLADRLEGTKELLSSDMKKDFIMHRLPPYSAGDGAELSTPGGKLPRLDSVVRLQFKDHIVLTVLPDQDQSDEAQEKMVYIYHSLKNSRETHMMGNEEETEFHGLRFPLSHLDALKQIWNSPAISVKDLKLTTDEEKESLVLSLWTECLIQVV
# Molecular target: c-myc (human (endogenous in NCI-H929 and MM1S)) (UniProt P01106)
# Test: co-IP; endogenous proteins in total cell lysates of NCI-H929 and MM1S cells, immunoblotting; IP antibodies against mdig, c-myc and JAK1
substance,measurement,value
mdig (mineral dust-induced gene) (from UniProt Q8IUF8 1-465),binding,binds

# — PMC5105131
